# Percent effect of library compounds

Sequences of proteins named here, by UniProt entry; tags and fusion partners are left off. Residues count along the entry.
UniProt Q4DA54, 1-478: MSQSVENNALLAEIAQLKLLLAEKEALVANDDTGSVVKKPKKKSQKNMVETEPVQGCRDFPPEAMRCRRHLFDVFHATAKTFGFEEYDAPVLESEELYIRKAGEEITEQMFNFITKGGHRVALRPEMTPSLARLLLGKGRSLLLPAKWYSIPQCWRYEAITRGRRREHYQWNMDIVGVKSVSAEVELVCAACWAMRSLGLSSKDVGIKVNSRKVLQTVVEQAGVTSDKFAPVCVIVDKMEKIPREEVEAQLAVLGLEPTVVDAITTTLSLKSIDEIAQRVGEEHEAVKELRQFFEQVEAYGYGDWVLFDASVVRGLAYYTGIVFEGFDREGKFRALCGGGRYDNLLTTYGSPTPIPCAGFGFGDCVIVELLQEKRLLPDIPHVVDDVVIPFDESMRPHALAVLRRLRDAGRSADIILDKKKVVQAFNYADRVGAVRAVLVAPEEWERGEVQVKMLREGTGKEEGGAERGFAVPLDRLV
UniProt P9WNZ1, whole entry: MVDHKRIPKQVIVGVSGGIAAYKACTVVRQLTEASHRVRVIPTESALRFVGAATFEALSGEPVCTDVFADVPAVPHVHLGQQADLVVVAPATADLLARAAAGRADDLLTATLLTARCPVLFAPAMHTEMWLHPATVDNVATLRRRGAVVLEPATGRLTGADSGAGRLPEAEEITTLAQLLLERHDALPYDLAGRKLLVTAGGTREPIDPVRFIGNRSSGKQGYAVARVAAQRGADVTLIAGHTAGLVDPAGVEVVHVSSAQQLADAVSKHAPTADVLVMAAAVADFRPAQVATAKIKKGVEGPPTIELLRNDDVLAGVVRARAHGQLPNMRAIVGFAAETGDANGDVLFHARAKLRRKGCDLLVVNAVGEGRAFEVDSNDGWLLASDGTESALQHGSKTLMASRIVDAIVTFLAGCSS
UniProt P9WPC5, whole entry: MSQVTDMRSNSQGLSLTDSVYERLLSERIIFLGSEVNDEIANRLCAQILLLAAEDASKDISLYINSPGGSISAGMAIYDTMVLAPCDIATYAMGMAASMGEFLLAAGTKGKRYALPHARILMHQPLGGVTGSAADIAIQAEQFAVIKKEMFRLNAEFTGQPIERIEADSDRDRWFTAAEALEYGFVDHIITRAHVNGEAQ
UniProt P9WPC3, whole entry partner: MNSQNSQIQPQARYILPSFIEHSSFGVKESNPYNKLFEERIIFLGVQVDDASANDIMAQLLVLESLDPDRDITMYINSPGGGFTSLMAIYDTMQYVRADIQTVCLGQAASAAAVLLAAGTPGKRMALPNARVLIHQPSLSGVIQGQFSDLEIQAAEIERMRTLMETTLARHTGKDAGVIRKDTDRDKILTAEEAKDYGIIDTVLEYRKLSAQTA
UniProt Q8IDJ8, 1-583: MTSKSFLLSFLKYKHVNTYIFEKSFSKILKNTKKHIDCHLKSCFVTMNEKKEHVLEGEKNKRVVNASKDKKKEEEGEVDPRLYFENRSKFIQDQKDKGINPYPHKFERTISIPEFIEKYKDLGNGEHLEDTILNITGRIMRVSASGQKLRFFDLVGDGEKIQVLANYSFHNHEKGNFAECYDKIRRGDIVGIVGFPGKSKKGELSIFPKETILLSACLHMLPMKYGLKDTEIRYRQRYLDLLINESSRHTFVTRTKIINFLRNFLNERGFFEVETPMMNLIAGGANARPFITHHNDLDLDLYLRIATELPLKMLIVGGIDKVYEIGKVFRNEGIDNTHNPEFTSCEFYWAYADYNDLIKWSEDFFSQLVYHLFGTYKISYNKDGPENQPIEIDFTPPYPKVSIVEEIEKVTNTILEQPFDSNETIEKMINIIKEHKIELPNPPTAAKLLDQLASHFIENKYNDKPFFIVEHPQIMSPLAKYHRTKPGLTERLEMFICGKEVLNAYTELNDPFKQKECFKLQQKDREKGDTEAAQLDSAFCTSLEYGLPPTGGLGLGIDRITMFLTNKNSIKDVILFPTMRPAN

Leishmania in macrophages: 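Cell assay of Leishmania donovani living inside macrophages; the read-out is not stated. Tested at 30 µM. Higher reads as stronger inhibition (inferred: compounds with an IC50 in retests scored well above the rest). Of about 69,000 compounds tested this way, about 1,000 (1.5%) reached 50% or more in at least one test.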
TcHisRS: 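Histidine-tRNA ligase, Trypanosoma cruzi CL Brener (UniProt Q4DA54). Enzyme assay of histidyl-tRNA synthetase; the read-out is not stated. Compounds at 30 µM. The record gives no direction; compounds that gave an IC50 in retests scored well above the rest, so higher reads as stronger inhibition. Of about 69,000 compounds tested this way, about 31 (0.045%) reached 50% or more in at least one test.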
CoaBC: 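Enzyme assay of CoaBC with a phosphate dye (Biomol Green) read at 650 nm. Target: Coenzyme A biosynthesis protein CoaBC, Mycobacterium tuberculosis (UniProt P9WNZ1). Concentration: 30 µM. Higher reads as stronger inhibition, judged from the few compounds that gave an IC50. Most strong results did not repeat in a second test. About 67,000 compounds were tested under these conditions; 0.06% (about 40) showed 50% or more at least once.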
ClpP1P2: 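Protease assay of ClpP1P2, read by the AMC dye that it sets free. Target: ClpP1P2, Mycobacterium tuberculosis (UniProt P9WPC5 and UniProt P9WPC3). Tested at 50 µM. Higher reads as stronger inhibition, judged from the few compounds that gave an IC50. Most other retested compounds had strongly negative values. Of about 69,000 compounds tested this way, about 10 (0.015%) reached 50% or more in at least one test.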
PfKRS1: 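Lysine-tRNA ligase, Plasmodium falciparum 3D7 (UniProt Q8IDJ8). Enzyme assay of the cytosolic lysyl-tRNA synthetase in 384-well plates, read by luminescence. Tested at 30 µM. Direction is inferred from only a few compounds that gave an IC50; most scored high, so higher reads as stronger inhibition. Size under these conditions: about 69,000 compounds, about 49 of them at 50% or above in at least one test.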

Values are the deposited “Percent Effect”, in %. The controls that fix the scale are not given in the record; negative values are as filed. This is an unselected part of the compounds tested. A dash means the value is not listed here; it may have been measured.

SMILES | Leishmania in macrophages | TcHisRS | CoaBC | ClpP1P2 | PfKRS1
COc1ccc(CN2CCCCC2Cn2nc(C)nc2C)cc1F (stereo not given) | 22.69 | 5.983 | -2.145 | -10.9 | -0.335
COc1ccc(C2=NOC(C#N)C2)cc1 (stereo not given) | 4.075 | -2.232 | 0 | -29.72 | -1.317
CN(C)CCNC(=O)c1sccc1N(C)S(=O)(=O)c1ccc(Cl)cc1 | 7.809 | 2.484 | 3.418 | 5.7 | 4.367
O=C1CC2(CCN(CC3CCOC3)CC2)c2ccccc2N1CC1CC1 (stereo not given) | - | 6.796 | 1.416 | -1.854 | 6.047
CCN(CC)C(=O)c1ccn(COc2ccc(F)cc2)n1 | 21.63 | 0.8696 | 1.617 | -1.234 | 1.351
Cc1cc(N2CCC3(CCCN(CCO)C3=O)C2)nc(C)c1C#N (stereo not given) | -5.868 | 4.478 | 6.65 | -3.723 | 6.29
COC(=O)c1ccc(C2SCC(=O)Nc3c2cnn3C2CCCC2)cc1 (stereo not given) | 5.311 | -2.484 | 1.646 | -13.37 | 3.399
CNC(=O)NC(=O)CCSCc1cc(Cl)cc2cccnc12 | 45.48 | 3.659 | -3.418 | -4.232 | 10.53
CO[C@H]1CO[C@@]2(CCCN(C(=O)C3CC=CC3)C2)C1 | 0.9524 | 4.233 | 0.4938 | -2.297 | 2.217
Cc1cc(N(C)C)nc(C2(C)CCCNC2)n1 (stereo not given) | 8.983 | 1.538 | 3.8 | -11.59 | -3.472
COCC1CN(Cc2ccc(C)o2)Cc2cn(C)nc21.O=C(O)C(F)(F)F.O=C(O)C(F)(F)F (stereo not given) | 23.9 | - | - | - | -
Cn1c(-c2ccccc2Cl)nc2cc(C(=O)NC(CO)CO)cnc21 | 1.939 | -3.488 | 6.438 | -0.3771 | -0.5451
CC(C)Oc1cc(N2CC[C@@H](N3CCOCC3)[C@H](O)C2)nc(N)n1 | 23.76 | 3.175 | 4.142 | 2.056 | 3.713
Cc1nc(CN2CC[C@@H](OCC3CC3)[C@@H]2Cc2cccnc2)cs1.O=C(O)C(F)(F)F.O=C(O)C(F)(F)F | -1.982 | - | - | - | -
COCCNC(=O)[C@H]1C[C@@H]2CCN(Cc3nccs3)C[C@H]2O1 | - | 5.911 | 3.299 | 7.684 | -4.087
O=C(O)C(F)(F)F.O=C(O)C(F)(F)F.[H][C@@]12CN(Cc3cccs3)CCO[C@]1([H])CN(C1CCOCC1)C2 | 19.81 | - | - | - | -
CCOCC1CN(S(C)(=O)=O)Cc2cnn(CC3CCOCC3)c21.O=C(O)C(F)(F)F (stereo not given) | -4.04 | - | - | - | -
Cc1ccccc1C1CCN(C(=O)CCNS(C)(=O)=O)C1 (stereo not given) | 23.64 | 1.622 | -5.909 | 13.63 | -1.735
COCC(=O)N1CCc2cccc(S(=O)(=O)N3CCOCC3)c2C1 | 22.32 | 0 | 1.356 | -16.38 | 2.68
O=C(c1ccccn1)C1CCCN(c2nccc(CCC(F)(F)F)n2)C1 (stereo not given) | 23.84 | 11.49 | 4.305 | -13.86 | 6.541
CCNc1ncc(C(=O)NCc2cccc(OC(F)(F)F)c2)cn1 | -50.83 | 2.424 | 2.299 | -16.11 | 2.06
CCN1CCCCC1C(=O)Nc1cccc(-c2nnc[nH]2)c1 (stereo not given) | 4.71 | -1.667 | 8.171 | 6.179 | 3.743
Cn1cc(C#N)cc1C(=O)N1CCC2(CCCN(CC3CCC3)C2=O)C1 (stereo not given) | 14.78 | 4.082 | 0.3636 | -2.476 | 6.932
CCn1cnnc1CNC(=O)N1CCCCCC1 | -4.791 | 7.872 | 5.483 | -42.17 | 0.8128
Cc1cccc2c1NC1(CCOCC1)NC2=O | 5.185 | 4.094 | 2.525 | -54.95 | 4.995
COCCC1(C(=O)O)CCCN(C(=O)c2cc(C)oc2C)C1 (stereo not given) | 5.773 | 6.466 | 1.648 | -10.45 | 2.101
[H][C@]12CN(c3ccccn3)CCN1C[C@H](CO)[C@H]2c1ccccc1 | 1.77 | - | - | - | -
CCCNCc1cn(Cc2ccccc2)nc1-c1cccnc1 | - | -1.053 | -9.163 | -14.83 | 3.854
CC(NC(=O)CN1CCN(Cc2ccc(Br)s2)CC1)c1ccccc1 (stereo not given) | -25.53 | 4.459 | - | 4.695 | -2.24
COc1ccccc1CCN1CCCC(CN(C)Cc2c[nH]c(C)n2)C1 (stereo not given) | 23.77 | 2.439 | 5.19 | -3.547 | 3.142
CCC(CN1CCN(C)CC1)NC(=O)C1(c2cccc(F)c2)CC1 (stereo not given) | - | 5.303 | 8.138 | -15.75 | 1.514
CNC(=O)N1CC[C@H]2N(C)CC[C@@]2(C(=O)N2CCOCC2)CC1 | - | 8.738 | -0.9009 | 5.917 | 5.587
O=C1CC(CNc2cncc(Br)c2)c2ccccc2N1 (stereo not given) | 3.93 | 3.867 | 8.238 | 2.484 | 1.775
CS(=O)(=O)N1CCOCC2(CCN(Cc3ccc[nH]3)CC2)C1 | - | 13.5 | - | 0.4889 | 3.658
Cc1c(C(=O)NCC2CCCO2)nnn1-c1cccc2c1CCN(C)C2 (stereo not given) | 13.52 | 3.261 | -1.215 | 1.353 | -4.26
CC(C)C[C@H](Nc1nc(C2CCCC2)nc2c1cnn2C)C(N)=O | -43.44 | 5.202 | 1.985 | -7.124 | 3.936
CC(=O)N1CCCN(C(=O)NC(C)Cn2cccn2)CC1 (stereo not given) | -4.65 | 0.2907 | -5.937 | -26.62 | 0.2329
CCc1nc(CN2CCN(C(=O)c3cnccn3)CC2)cs1 | 14.95 | -1.149 | 2.361 | 4.18 | -0.1246
COc1cc(C)nc(N2CCN(C(=O)c3ccoc3C)CC2)n1 | 11.02 | 0.8721 | 0.3492 | -23.19 | -2.421
Fc1cnc(N2C[C@H]3CN(Cc4cccc(F)c4)C[C@H]3C2)nc1 | - | 4.301 | -4.863 | -4.532 | 6.379
COCCNc1nc(C2CCCC2)nc2c1CCNCC2 | 63.78 | 7.5 | -27.51 | -11.59 | -3.307
O=C(c1ccc(Cl)o1)N1CCCC(c2cc(C(F)(F)F)[nH]n2)C1 (stereo not given) | 39.48 | 0.7576 | 9.182 | -2.255 | 5.889
CCCc1nc(N2CCN(CC)CC2)c2c(n1)c(C)nn2CC | 26.63 | 1.674 | 3.636 | 0.9368 | 3.721
CCc1cc(NCCNC(C)=O)nc(N2CCCC2)n1 | -9.731 | -1.316 | - | -9.401 | -4.423
Cc1ccsc1CNC(=O)NC1CCCc2c1cnn2CCO (stereo not given) | 21.16 | 2.075 | -4.911 | 0.09458 | 0.6007

The last 5 entries again:

SMILES,Leishmania in macrophages,TcHisRS,CoaBC,ClpP1P2,PfKRS1
COCCNc1nc(C2CCCC2)nc2c1CCNCC2,63.78,7.5,-27.51,-11.59,-3.307
O=C(c1ccc(Cl)o1)N1CCCC(c2cc(C(F)(F)F)[nH]n2)C1 (stereo not given),39.48,0.7576,9.182,-2.255,5.889
CCCc1nc(N2CCN(CC)CC2)c2c(n1)c(C)nn2CC,26.63,1.674,3.636,0.9368,3.721
CCc1cc(NCCNC(C)=O)nc(N2CCCC2)n1,-9.731,-1.316,-,-9.401,-4.423
Cc1ccsc1CNC(=O)NC1CCCc2c1cnn2CCO (stereo not given),21.16,2.075,-4.911,0.09458,0.6007

Source: ChEMBL document CHEMBL3988442, “University of Dundee, Small-Polar-MMV Screening Library” (2021).